The record followed here is paper PMC2996967.

Series [1] concerns bTTF1 (TTF-1, bacterially produced and purified). Put plainly: EMSA. The following applies: 10 mM HEPES pH 7.9, 10% glycerol, 0.1 mM EDTA, 8 mM MgCl2, 1 mM DTT, 0.15 ug/ml poly(dI-dC), 30 min, room temperature; 6% native PAGE; recombinant protein; label: 32P.
A further series deals with T1, TTF-1 in PC Cl3 extract (UniProt P23441).
T1 sequence (looked up, limits assumed): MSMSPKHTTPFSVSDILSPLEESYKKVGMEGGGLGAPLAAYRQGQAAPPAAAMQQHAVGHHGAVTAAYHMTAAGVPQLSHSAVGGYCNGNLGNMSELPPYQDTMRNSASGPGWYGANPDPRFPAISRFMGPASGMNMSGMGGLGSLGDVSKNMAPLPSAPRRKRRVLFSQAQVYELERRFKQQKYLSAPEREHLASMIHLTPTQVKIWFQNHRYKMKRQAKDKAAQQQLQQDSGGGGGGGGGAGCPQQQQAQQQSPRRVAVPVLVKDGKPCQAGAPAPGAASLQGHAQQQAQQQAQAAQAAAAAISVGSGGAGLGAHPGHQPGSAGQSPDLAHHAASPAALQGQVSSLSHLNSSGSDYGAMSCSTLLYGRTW
Put plainly: EMSA supershift. The following applies: anti-TTF-1, PC Cl3 extract; 10 mM HEPES pH 7.9, 10% glycerol, 0.1 mM EDTA, 8 mM MgCl2, 1 mM DTT, 0.15 ug/ml poly(dI-dC), 30 min, room temperature; 6% native PAGE; protein in an extract; label: 32P. For orientation: In EMSA bound probe runs differently from free probe, usually more slowly.

For at least one entry, the source does not settle the construct or the ends of the probe. For some of these results: At least one result comes from cells or an extract, where the contact may be indirect. For some of these results: Where a protein sequence is shown, tags need not be part of it.

With “CGCACAAGAGCCCTTCTCAAGGGAT (double strand) [FT-1]”, the binding result (in series [1]; with TTF-1 in PC Cl3 extract) was “binds” throughout.
For “GAGAACGTTTATAAGTGTCTGGCTG (double strand) [FT-6]”, the binding result (in series [1]; with TTF-1 in PC Cl3 extract) was “binds” throughout.
